Here are results for one substance from article PMC7766365.

The chains behind the UniProt entries cited, without tags or fusion partners.
UniProt P0DTC4: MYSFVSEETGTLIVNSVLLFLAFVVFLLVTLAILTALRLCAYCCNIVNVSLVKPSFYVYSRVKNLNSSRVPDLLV
UniProt O00203: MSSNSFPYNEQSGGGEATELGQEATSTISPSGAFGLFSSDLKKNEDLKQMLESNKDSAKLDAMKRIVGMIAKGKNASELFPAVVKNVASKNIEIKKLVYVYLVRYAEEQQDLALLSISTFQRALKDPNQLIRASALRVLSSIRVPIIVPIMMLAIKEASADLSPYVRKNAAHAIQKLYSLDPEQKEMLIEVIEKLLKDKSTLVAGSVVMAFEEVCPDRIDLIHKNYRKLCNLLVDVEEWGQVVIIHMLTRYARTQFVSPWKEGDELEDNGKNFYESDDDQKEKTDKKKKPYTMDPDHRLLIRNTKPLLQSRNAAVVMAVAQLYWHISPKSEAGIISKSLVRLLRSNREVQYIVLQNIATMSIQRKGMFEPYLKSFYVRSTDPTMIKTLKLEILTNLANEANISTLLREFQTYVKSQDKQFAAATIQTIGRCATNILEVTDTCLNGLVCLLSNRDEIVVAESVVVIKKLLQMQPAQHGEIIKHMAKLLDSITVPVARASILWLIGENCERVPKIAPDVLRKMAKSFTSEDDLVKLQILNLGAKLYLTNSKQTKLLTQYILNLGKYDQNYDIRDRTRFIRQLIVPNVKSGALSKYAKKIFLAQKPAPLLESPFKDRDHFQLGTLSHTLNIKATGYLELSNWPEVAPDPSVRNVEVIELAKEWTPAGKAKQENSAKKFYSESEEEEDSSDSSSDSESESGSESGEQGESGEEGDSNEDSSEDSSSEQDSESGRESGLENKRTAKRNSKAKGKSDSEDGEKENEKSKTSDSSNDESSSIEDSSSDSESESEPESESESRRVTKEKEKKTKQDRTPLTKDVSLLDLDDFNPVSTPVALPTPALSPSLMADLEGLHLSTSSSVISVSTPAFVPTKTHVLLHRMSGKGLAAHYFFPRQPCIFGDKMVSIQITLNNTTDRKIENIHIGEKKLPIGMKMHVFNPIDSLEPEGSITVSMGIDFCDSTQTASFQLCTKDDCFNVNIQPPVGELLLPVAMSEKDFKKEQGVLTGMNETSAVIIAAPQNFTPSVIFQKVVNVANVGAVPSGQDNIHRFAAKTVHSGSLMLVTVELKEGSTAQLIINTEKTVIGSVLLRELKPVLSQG

No constants are given. Whether binding was seen depends on the method and setting. In cells and extracts the contact can be indirect. Here binding means that the protein was enriched with, or labelled near, the bait; the list need not be complete.

The experiment has as its target SARS-CoV-2 E (SARS-CoV-2) (UniProt P0DTC4). As to the kind of experiment: affinity purification with mass spectrometry.

For AP3B1 (from UniProt O00203 1-1094), the binding entry was “binds”.
